Experimental data from US7446117B2, “Cox-2 inhibiting pyridine derivatives” (Glaxo Group Limited, priority 2002, dated 2008).
Some results were stated once for a whole list of compounds, not compound by compound.

By UniProt entry, the sequences of proteins in these tests, tags left out. Residues count along the entry.
UniProt P23219, 24-599: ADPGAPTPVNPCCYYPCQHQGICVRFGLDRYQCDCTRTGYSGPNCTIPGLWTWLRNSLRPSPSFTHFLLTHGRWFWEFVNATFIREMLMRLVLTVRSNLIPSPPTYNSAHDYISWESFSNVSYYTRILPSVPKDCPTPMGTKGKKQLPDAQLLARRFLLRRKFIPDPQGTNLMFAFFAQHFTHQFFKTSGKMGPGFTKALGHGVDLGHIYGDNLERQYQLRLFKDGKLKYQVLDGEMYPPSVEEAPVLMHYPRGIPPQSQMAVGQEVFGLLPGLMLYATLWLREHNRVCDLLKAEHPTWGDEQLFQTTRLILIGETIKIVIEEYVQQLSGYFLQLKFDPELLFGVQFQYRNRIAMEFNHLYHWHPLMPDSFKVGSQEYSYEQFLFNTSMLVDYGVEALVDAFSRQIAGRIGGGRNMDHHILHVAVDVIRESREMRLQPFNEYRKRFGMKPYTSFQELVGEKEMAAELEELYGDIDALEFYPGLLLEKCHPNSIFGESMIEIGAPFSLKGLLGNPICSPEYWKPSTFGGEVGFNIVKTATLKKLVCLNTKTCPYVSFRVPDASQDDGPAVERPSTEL

Target: COX-1 (Homo sapiens, UniProt P23219)
Test: COX-1 inhibition, IC50 compared for selectivity for COX-2 over COX-1
Assay type: biochemical
Details: based on comparison of the respective IC50 values

Row | SMILES | selectivity for COX-2 over COX-1 [fold]
1 | Cc1cc(NCC2CCOCC2)nc(-c2ccc(S(N)(=O)=O)cc2)c1 [Example 90] | ≥ 100
2 | CCc1cc(NC2CCOCC2)nc(-c2ccc(S(N)(=O)=O)cc2)c1 [Example 91] | ≥ 100
3 | CS(=O)(=O)c1ccc(-c2cc(CF)cc(NC3CCCCC3)n2)cc1 [Example 92] | ≥ 100
4 | CCc1cc(NCc2ccccc2)nc(-c2ccc(S(C)(=O)=O)cc2)c1 [Example 93] | ≥ 100
5 | Cc1cc(N[C@@H](C)c2ccccc2)nc(-c2ccc(S(C)(=O)=O)cc2)c1 [Example 94] | ≥ 100
6 | Cc1cc(NCc2ccccc2C)nc(-c2ccc(S(C)(=O)=O)cc2)c1 [Example 95] | ≥ 100
7 | CCc1cc(OCc2ccccc2)nc(-c2ccc(S(C)(=O)=O)cc2)c1 [Example 96] | ≥ 100
8 | Cc1cc(NCc2ccc(C)nc2)nc(-c2ccc(S(C)(=O)=O)cc2)c1 [Example 98] | ≥ 100
9 | CCc1cc(Nc2ccc(C)nc2)nc(-c2ccc(S(C)(=O)=O)cc2)c1 [Example 99] | ≥ 100
10 | CCc1cc(NCc2ccccc2)nc(-c2ccc(S(C)(=O)=O)cc2)c1 [Example 100] | ≥ 100
11 | CCc1cc(OCc2cccnc2)nc(-c2ccc(S(C)(=O)=O)cc2)c1 [Example 101] | ≥ 100
12 | CCc1cc(NCc2cnccn2)nc(-c2ccc(S(C)(=O)=O)cc2)c1 [Example 103] | ≥ 100
13 | CS(=O)(=O)c1ccc(-c2cc(CF)cc(NCc3ccccc3)n2)cc1 [Example 104] | ≥ 100
14 | CCc1cc(Nc2ccc(F)cc2)nc(-c2ccc(S(C)(=O)=O)cc2)c1 [Example 105] | ≥ 100
15 | CCc1cc(NCc2nccn2C)nc(-c2ccc(S(C)(=O)=O)cc2)c1 [Example 108] | ≥ 100
16 | CCc1cc(NCc2[nH]cnc2C)nc(-c2ccc(S(C)(=O)=O)cc2)c1 [Example 109] | ≥ 100
17 | Cc1cc(-c2ccc(S(C)(=O)=O)cc2)nc(N(C)Cc2nccn2C)c1 [Example 110] | ≥ 100
18 | CCn1ccnc1CNc1cc(C)cc(-c2ccc(S(C)(=O)=O)cc2)n1 [Example 112] | ≥ 100
19 | Cc1cc(NCc2cn(C)nc2C)nc(-c2ccc(S(C)(=O)=O)cc2)c1 [Example 113] | ≥ 100
20 | Cc1cc(NCc2cnn(C)c2C)nc(-c2ccc(S(C)(=O)=O)cc2)c1 [Example 114] | ≥ 100
21 | CCc1cc(NCc2cnn(C)c2)nc(-c2ccc(S(C)(=O)=O)cc2)c1 [Example 115] | ≥ 100
22 | CCc1cc(OCc2ccnn2C)nc(-c2ccc(S(C)(=O)=O)cc2)c1 [Example 116] | ≥ 100
23 | CCc1cc(NCc2cnn(C)c2)nc(-c2ccc(S(N)(=O)=O)cc2)c1 [Example 119] | ≥ 100
24 | CCc1cc(NCc2cccs2)nc(-c2ccc(S(C)(=O)=O)cc2)c1 [Example 120] | ≥ 100
25 | Cc1cc(NCc2cc(C)ns2)nc(-c2ccc(S(C)(=O)=O)cc2)c1 [Example 123] | ≥ 100

Row | SMILES | selectivity for COX-2 over COX-1 [fold]
26 | Cc1cc(NCc2nc(C)cs2)nc(-c2ccc(S(C)(=O)=O)cc2)c1 [Example 124] | ≥ 100
27 | Cc1cc(NCc2csnc2C)nc(-c2ccc(S(C)(=O)=O)cc2)c1 [Example 125] | ≥ 100
28 | Cc1cc(NCc2cnn(CF)c2)nc(-c2ccc(S(C)(=O)=O)cc2)c1 [Example 126] | ≥ 100
29 | CCc1cc(NCC2CCOCC2)nc(-c2ccc(S(N)(=O)=O)cc2)c1 [Example 127] | ≥ 100
30 | CCN(Cc1ccccc1)c1cc(C)cc(-c2ccc(S(C)(=O)=O)cc2)n1 [Example 128] | ≥ 100
31 | CCc1cc(NCc2ccc(C)cc2)nc(-c2ccc(S(C)(=O)=O)cc2)c1 [Example 129] | ≥ 100
32 | Cc1nccn1-c1cc(C(F)(F)F)cc(-c2ccc(S(C)(=O)=O)cc2)n1 [Example 130] | ≥ 100
33 | Cc1cc(-c2ccc(S(C)(=O)=O)cc2)nc(NCc2cnn(C)c2)c1C#N [Example 131] | ≥ 100
34 | CCc1cc(OCc2cccnc2C)nc(-c2ccc(S(C)(=O)=O)cc2)c1 [Example 133] | ≥ 100
35 | CCc1cc(OCc2ccc(C)nc2)nc(-c2ccc(S(C)(=O)=O)cc2)c1 [Example 134] | ≥ 100
36 | CCc1cc(OCc2cccc(C)n2)nc(-c2ccc(S(C)(=O)=O)cc2)c1 [Example 135] | ≥ 100
37 | CCc1cc(NCc2cnn(C)c2C)nc(-c2ccc(S(C)(=O)=O)cc2)c1 [Example 139] | ≥ 100
38 | CCc1cc(NCc2cnn(C)c2C)nc(-c2ccc(S(N)(=O)=O)cc2)c1 [Example 140] | ≥ 100
39 | CCc1cc(NCc2cn(C)nc2C)nc(-c2ccc(S(N)(=O)=O)cc2)c1 [Example 141] | ≥ 100
40 | CCc1cc(NCc2nc(C)cs2)nc(-c2ccc(S(C)(=O)=O)cc2)c1 [Example 142] | ≥ 100
41 | CCc1cc(-c2ccc(S(C)(=O)=O)cc2)nc(NCc2cnn(C)c2)c1F [Example 143] | ≥ 100
42 | CCc1cc(NCc2cnn(CF)c2)nc(-c2ccc(S(C)(=O)=O)cc2)c1 [Example 144] | ≥ 100
43 | CCc1cc(NCc2nc(C)cs2)nc(-c2ccc(S(N)(=O)=O)cc2)c1 [Example 145] | ≥ 100
44 | Cc1cc(NCc2ccc(Cl)cn2)nc(-c2ccc(S(N)(=O)=O)cc2)c1 [Example 146] | ≥ 100
45 | Cc1cc(-c2ccc(S(C)(=O)=O)cc2)nc(NCc2cnn(C)c2)c1Cl [Example 147] | ≥ 100
46 | CCc1cc(-c2ccc(S(C)(=O)=O)cc2)nc(NCc2ccccc2)c1C#N [Example 148] | ≥ 100
47 | Cc1ccc(COc2nc(-c3ccc(S(C)(=O)=O)cc3)cc(C)c2C#N)cn1 [Example 149] | ≥ 100
48 | CS(=O)(=O)c1ccc(-c2cc(C(F)(F)F)cc(Oc3cccnc3)n2)cc1 [Example 150] | ≥ 100
49 | CC(C)(C)c1cc(NCc2ccccc2)nc(-c2ccc(S(C)(=O)=O)cc2)c1 [Example 151] | ≥ 100
50 | CS(=O)(=O)c1ccc(-c2cc(C(F)(F)F)cc(NCc3ncc[nH]3)n2)cc1 [Example 153] | ≥ 100

Row | SMILES | selectivity for COX-2 over COX-1 [fold]
51 | CCOc1ccc(Nc2cc(CC)cc(-c3ccc(S(C)(=O)=O)cc3)n2)cc1 [Example 154] | ≥ 100
52 | CCc1cc(NCc2ccc(Cl)cn2)nc(-c2ccc(S(N)(=O)=O)cc2)c1 [Example 157] | ≥ 100
53 | Cc1cc(OCc2ccc(C)nc2)nc(-c2ccc(S(C)(=O)=O)cc2)c1 [Example 158] | ≥ 100
54 | Cc1ncccc1Nc1cc(C(F)(F)F)cc(-c2ccc(S(C)(=O)=O)cc2)n1 [Example 160] | ≥ 100
55 | NS(=O)(=O)c1ccc(-c2cc(C(F)(F)F)cc(NCc3ccccc3)n2)cc1 [Example 161] | ≥ 100
56 | Cc1cccc(Nc2cc(C(F)(F)F)cc(-c3ccc(S(C)(=O)=O)cc3)n2)n1 [Example 162] | ≥ 100
57 | Cc1ccc(Nc2cc(C(F)(F)F)cc(-c3ccc(S(C)(=O)=O)cc3)n2)cn1 [Example 163] | ≥ 100
58 | CS(=O)(=O)c1ccc(-c2cc(C(F)(F)F)cc(OCc3ccccn3)n2)cc1 [Example 164, 2-[4-(methylsulfonyl)phenyl]-6-[(2-pyridinylmethyl)oxy]-4-(trifluoromethyl)pyridine] | ≥ 100
59 | Cc1ncccc1Oc1cc(C(F)(F)F)cc(-c2ccc(S(C)(=O)=O)cc2)n1 [Example 165] | ≥ 100
60 | CS(=O)(=O)c1ccc(-c2cc(C(F)(F)F)cc(OCc3cccnc3)n2)cc1 [Example 166] | ≥ 100
61 | Cc1ccc(Oc2cc(C(F)(F)F)cc(-c3ccc(S(C)(=O)=O)cc3)n2)cn1 [Example 167] | ≥ 100
62 | CS(=O)(=O)c1ccc(-c2cc(C(F)(F)F)cc(NCc3cnccn3)n2)cc1 [Example 168] | ≥ 100
63 | CS(=O)(=O)c1ccc(-c2cc(C(F)(F)F)cc(Nc3ccc(F)cc3)n2)cc1 [Example 169] | ≥ 100
64 | CN(Cc1ccco1)c1cc(C(F)(F)F)cc(-c2ccc(S(C)(=O)=O)cc2)n1 [Example 170] | ≥ 100
65 | Cn1cc(CNc2cc(C(F)(F)F)cc(-c3ccc(S(C)(=O)=O)cc3)n2)cn1 [Example 171] | ≥ 100
66 | Cn1ncnc1CNc1cc(C(F)(F)F)cc(-c2ccc(S(C)(=O)=O)cc2)n1 [Example 173] | ≥ 100
67 | CS(=O)(=O)c1ccc(-c2cc(C(F)(F)F)cc(NCc3cccs3)n2)cc1 [Example 174] | ≥ 100
68 | CS(=O)(=O)c1ccc(-c2cc(C(F)(F)F)cc(NCC3CCOCC3)n2)cc1 [Example 175] | ≥ 100
69 | Cc1ccc(Nc2cc(C(F)(F)F)cc(-c3ccc(S(C)(=O)=O)cc3)n2)c(C)n1 [Example 178] | ≥ 100
70 | Cc1cccc(CNc2cc(C(F)(F)F)cc(-c3ccc(S(C)(=O)=O)cc3)n2)n1 [Example 180] | ≥ 100
71 | Cc1cc(NCc2ccc(Cl)c(Cl)c2)nc(-c2ccc(S(N)(=O)=O)cc2)c1 [Example 182] | ≥ 100
72 | Cc1ccc(Oc2cc(C(F)(F)F)cc(-c3ccc(S(C)(=O)=O)cc3)n2)c(C)n1 [Example 183] | ≥ 100
73 | Cc1cccc(COc2cc(C(F)(F)F)cc(-c3ccc(S(C)(=O)=O)cc3)n2)n1 [Example 184] | ≥ 100
